In patent US20130324409A1:
No constants are given. Whether binding was seen depends on the method and setting. In cells and extracts the contact can be indirect. Some results given as binding are weak or reduced against the parent protein; the word gives no strength. Tags and fused reporters may be left off the sequences shown.

By UniProt entry, the sequences of proteins in these tests, tags left out. Residues count along the entry.
UniProt Q9CAJ0, residues 23-511: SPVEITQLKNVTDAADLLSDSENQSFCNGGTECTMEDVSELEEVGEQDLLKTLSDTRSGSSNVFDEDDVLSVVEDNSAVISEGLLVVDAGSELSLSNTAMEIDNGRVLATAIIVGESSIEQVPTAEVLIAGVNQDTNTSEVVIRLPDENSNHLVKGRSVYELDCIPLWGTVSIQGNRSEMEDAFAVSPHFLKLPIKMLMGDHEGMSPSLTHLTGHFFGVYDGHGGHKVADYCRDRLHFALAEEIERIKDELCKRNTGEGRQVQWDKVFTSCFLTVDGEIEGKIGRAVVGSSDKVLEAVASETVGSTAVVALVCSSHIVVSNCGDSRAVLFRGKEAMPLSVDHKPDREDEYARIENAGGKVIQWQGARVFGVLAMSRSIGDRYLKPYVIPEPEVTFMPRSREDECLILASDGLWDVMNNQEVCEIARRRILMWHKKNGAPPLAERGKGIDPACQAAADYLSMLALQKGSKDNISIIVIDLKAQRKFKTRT

Molecular target: GST-HAB1 (Arabidopsis) (UniProt Q9CAJ0)
Test: in vitro pull-down as developed for PYR1, with ABA

binding: binds
B1: PYL4 6×His-tagged protein (receptor)
chain: HHHHHHMLAVHRPSSAVSDGDSVQIPMMIASFQKRFPSLSRDSTAARFHTHEVGPNQCCSAVIQEISAPISTVWSVVRRFDNPQAYKHFLKSCSVIGGDGDNVGSLRQVHVVSGLPAASSTERLDILDDERHVISFSVVGGDHRLSNYRSVTTLHPSPISGTVVVESYVVDVPPGNTKEETCDFVDVIVRCNLQSLAKIAENTAAESKKKMSL
